According to US20160067221A1, “USE OF ERGOTHIONEINE FOR INDUCING ACTIVITY OF NRF2 IN CELL” (China Medical University, priority 2014, published 2016):
For at least one compound, name, drawing or mass did not settle the structure.

Test system: Nrf2
Test: Ergothioneine-induced Nrf2 nuclear translocation after kinase inhibitor pretreatment (Western blot)
Type: cell-based, human
Settings: inhibitor 20 μM 30 minutes, then 500 nM ergothioneine 1 hour
Method: Given that the ergothioneine can activate the Nrf2 to induce the expression of the downstream antioxidant genes; this example further investigates the pathway of the Nrf2 activated by the ergothioneine.
The HaCaT cells are incubated with respective pharmacological inhibitors of p38 (SB203580; 20 μM), ERK (PD98059; 20 μM), JNK (SP600125; 20 μM), PI3K (LY294002; 20 μM), PKC (GF109203X; 2.5 μM), or ROS (NAC; 1 mM) for 30 minutes, and then incubated with 500 nM ergothioneine for 1 hour. After the incubation, nuclear extracts and cytosolic extracts are collected to observe the expression of the Nrf2 nuclear translocation. FIG. 12 illustrates that the ergothioneine induces a Nrf2-mediated antioxidant signaling pathway. The data result is represented by mean±SD values; n=3, wherein * represents ρ<0.05 compared to the control group.

O=c1cc(N2CCOCC2)oc2c(-c3ccccc3)cccc12 [LY294002]
expression of the Nrf2 nuclear translocation: significantly inhibited
